Measurements reported in PubChem BioAssay AID1259308 (NCATS, 2017).

- Aim: 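Genes whose loss raises luciferase production in HEK293 cells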 (primary screen)
- Cell system: human HEK293 embryonic kidney cells stably expressing firefly luciferase (HEK-CMV-Luc2-Hygro)
- Reagents: single siRNA against human genes, 0.8 pmol siRNA per well
- Time to read-out: 72 h
- Read-out: 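Reporter luminescence and viable-cell signal on separate replicate plates, given as percent of non-targeting control and median/MAD z-scores, plus per-cell luciferase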
- Reading the numbers: total luciferase, z-score and total luciferase, % of control: higher = more reporter protein produced
- Hit rule: 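Active when the median/MAD z-score for overall luciferase is greater than 3; a gene was taken forward for validation with new siRNAs if at least two of its three siRNAs passed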
- Meaning of the calls: active = raised luciferase; inactive = no rise
Here is a random part of about 59,000 reagents tested. About 1,510 of them (2.6%) count as active. 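Calls use total luciferase alone and ignore viability, so some active siRNAs may act by altering cell number.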 Unmarked entries are inactive. The numbers tell different reagents against one gene apart. Further read-outs or replicates are left out here.

| gene symbol | reagent | total luciferase, z-score | total luciferase, % of control |
| --- | --- | --- | --- |
| GABRP (gamma-aminobutyric acid type A receptor subunit pi) | 1 | 0.0591 | 83.1 |
| GABRP (gamma-aminobutyric acid type A receptor subunit pi) | 2 | -0.92 | 63.6 |
| GABRP (gamma-aminobutyric acid type A receptor subunit pi) | 3 | 0.406 | 90 |
| NYAP1 | 1 | 4.43 (active) | 170 |
| NYAP1 | 2 | -0.0106 | 81.7 |
| NYAP1 | 3 | -0.356 | 74.8 |
| SCGB1C1 (secretoglobin family 1C member 1) | 1 | -0.503 | 71.9 |
| SCGB1C1 (secretoglobin family 1C member 1) | 2 | -0.338 | 75.2 |
| SCGB1C1 (secretoglobin family 1C member 1) | 3 | -2.07 | 40.8 |
| HOXA6 (homeobox A6) | 1 | -0.0955 | 80 |
| HOXA6 (homeobox A6) | 2 | -0.249 | 76.9 |
| HOXA6 (homeobox A6) | 3 | -0.757 | 66.8 |
| ABCD4 (ATP binding cassette subfamily D member 4) | 1 | -0.568 | 70.6 |
| ABCD4 (ATP binding cassette subfamily D member 4) | 2 | -0.297 | 76 |
| ABCD4 (ATP binding cassette subfamily D member 4) | 3 | 1.13 | 104 |
| FSHB (follicle stimulating hormone subunit beta) | 1 | -0.462 | 72.7 |
| FSHB (follicle stimulating hormone subunit beta) | 2 | -0.684 | 68.3 |
| FSHB (follicle stimulating hormone subunit beta) | 3 | -0.799 | 66 |
| PRC1 (protein regulator of cytokinesis 1) | 1 | 1.83 | 118 |
| PRC1 (protein regulator of cytokinesis 1) | 2 | -1.95 | 43.1 |
| PRC1 (protein regulator of cytokinesis 1) | 3 | -0.401 | 73.9 |
| ISL2 (ISL LIM homeobox 2) | 1 | 0.0642 | 83.2 |
| ISL2 (ISL LIM homeobox 2) | 2 | -0.594 | 70.1 |
| ISL2 (ISL LIM homeobox 2) | 3 | -1.57 | 50.6 |
| NKAP (NFKB activating protein) | 1 | -0.421 | 73.5 |
| NKAP (NFKB activating protein) | 2 | 1.35 | 109 |
| NKAP (NFKB activating protein) | 3 | -0.44 | 73.1 |
| TEX2 (testis expressed 2) | 1 | -0.0902 | 80.1 |
| TEX2 (testis expressed 2) | 2 | -0.728 | 67.4 |
| TEX2 (testis expressed 2) | 3 | 1.13 | 104 |
| DUXA (double homeobox A) | 1 | -1.17 | 58.5 |
| DUXA (double homeobox A) | 2 | -2.51 | 31.9 |
| DUXA (double homeobox A) | 3 | 1.13 | 104 |
| CSTB (cystatin B) | 1 | 0.00458 | 82 |
| CSTB (cystatin B) | 2 | 2.13 | 124 |
| CSTB (cystatin B) | 3 | 0.602 | 93.9 |
| OR10A6 | 1 | 0.387 | 89.6 |
| OR10A6 | 2 | -0.432 | 73.3 |
| OR10A6 | 3 | 1.75 | 117 |
| GINS3 (GINS complex subunit 3) | 1 | -0.217 | 77.6 |
| GINS3 (GINS complex subunit 3) | 2 | -1.27 | 56.6 |
| GINS3 (GINS complex subunit 3) | 3 | -0.293 | 76.1 |
| SND1 (staphylococcal nuclease and tudor domain containing 1) | 1 | 0.23 | 86.5 |
| SND1 (staphylococcal nuclease and tudor domain containing 1) | 2 | 0.611 | 94 |
| SND1 (staphylococcal nuclease and tudor domain containing 1) | 3 | -0.957 | 62.9 |
| MRPS6 (mitochondrial ribosomal protein S6) | 1 | -0.0755 | 80.4 |
| MRPS6 (mitochondrial ribosomal protein S6) | 2 | 0.298 | 87.8 |
| MRPS6 (mitochondrial ribosomal protein S6) | 3 | -0.946 | 63.1 |
| ZNF648 (zinc finger protein 648) | 1 | 2.88 | 139 |
| ZNF648 (zinc finger protein 648) | 2 | -0.743 | 67.1 |
| ZNF648 (zinc finger protein 648) | 3 | 1.77 | 117 |
| PSMA3 (proteasome 20S subunit alpha 3) | 1 | 0.613 | 94.1 |
| PSMA3 (proteasome 20S subunit alpha 3) | 2 | -1.79 | 46.2 |
| PSMA3 (proteasome 20S subunit alpha 3) | 3 | -0.885 | 64.3 |
| DOCK3 (dedicator of cytokinesis 3) | 1 | 0.00967 | 82.1 |
| DOCK3 (dedicator of cytokinesis 3) | 2 | -0.415 | 73.6 |
| DOCK3 (dedicator of cytokinesis 3) | 3 | -0.588 | 70.2 |

Active calls, of those listed so far:
| gene symbol | reagent | total luciferase, z-score | total luciferase, % of control |
| --- | --- | --- | --- |
| NYAP1 | 1 | 4.43 (active) | 170 |
